{"source": "patent US10245278B2", "about": "(priority 2013, dated 2019)", "assay": "Blind bitterness evaluation by a panel of three trained experts", "design": "species or system human; key to bitterness score from each expert: 1=not satisfactory; 2=fair; 3=satisfactory (no bitterness)"}
{"molecule": "OC[C@@H](O)[C@@H](O[C@H]1O[C@H](CO)[C@@H](O)[C@H](O)[C@H]1O)[C@H](O)[C@@H](O)CO", "note": "[maltitol]", "values": [{"measurement": "bitterness score from each expert", "setting": "individual mark 1 to 3, without dilution in water", "result": 2}, {"measurement": "total bitterness score (panel of experts)", "setting": "three experts, total score from 3 to 9, without addition of water", "result": 7}]}
